# Assay results

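Malaria parasite (P. falciparum) lines kept in red blood cells; parasite DNA is measured by SYBR Green fluorescence after lysis, 72 h after compound addition.
Each compound was titrated across a series from about 0.000037 to 29 µM.
The number is the fitted AC50, the concentration giving a half-maximal change in signal; a lower value means higher potency, whether the curve shows a decrease or an increase.
Calls follow the curve class and fit quality: every row here is inconclusive, covering signal-raising curves and weak, poorly fitted, partial or highest-dose-only inhibition curves.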

Values are in µM.
Every entry below has the call inconclusive.
These entries are mostly ones the record files as inconclusive; other results of the assay are not listed here.
Potencies fitted to partial, single-point or poorly fitting curves are rough.
Some entries filed as inconclusive have a full curve.
The first word of each remark tells which way the curve ran; it can be opposite to the aim of the assay.

{"smiles": "COc1cc(-c2ccc(=O)[nH]n2)ccc1OC(F)F", "condition": "CP194", "potency (µM)": "0.0048", "curve": "activator"}
{"smiles": "COc1cc(-c2ccc(=O)[nH]n2)ccc1OC(F)F", "condition": "CP315", "potency (µM)": "0.0135", "curve": "activator"}
{"smiles": "COc1cc(-c2ccc(=O)[nH]n2)ccc1OC(F)F", "condition": "CP191", "potency (µM)": "0.3162", "curve": "inhibitor, full curve"}
{"smiles": "COc1cc(-c2ccc(=O)[nH]n2)ccc1OC(F)F", "condition": "PC49", "potency (µM)": "0.1259", "curve": "inhibitor, full curve"}
{"smiles": "COc1cc(-c2ccc(=O)[nH]n2)ccc1OC(F)F", "condition": "CP203", "potency (µM)": "0.0239", "curve": "activator"}
{"smiles": "COc1cc(-c2ccc(=O)[nH]n2)ccc1OC(F)F", "condition": "CP211", "potency (µM)": "0.0085", "curve": "activator"}
{"smiles": "COc1cc(-c2ccc(=O)[nH]n2)ccc1OC(F)F", "condition": "CP269", "potency (µM)": "0.0043", "curve": "activator"}
{"smiles": "COc1cc(-c2ccc(=O)[nH]n2)ccc1OC(F)F", "condition": "W2", "potency (µM)": "0.0953", "curve": "activator"}
{"smiles": "COc1cc(-c2ccc(=O)[nH]n2)ccc1OC(F)F", "condition": "DIV17", "potency (µM)": "0.0005", "curve": "activator"}
{"smiles": "COc1cc(-c2ccc(=O)[nH]n2)ccc1OC(F)F", "condition": "DIV30", "potency (µM)": "0.0107", "curve": "activator"}
{"smiles": "COc1cc(-c2ccc(=O)[nH]n2)ccc1OC(F)F", "condition": "FAB9", "potency (µM)": "39.81", "curve": "inhibitor, partial curve, poor fit"}
{"smiles": "COc1cc(-c2ccc(=O)[nH]n2)ccc1OC(F)F", "condition": "CP215", "potency (µM)": "0.0043", "curve": "activator"}
{"smiles": "COc1cc(-c2ccc(=O)[nH]n2)ccc1OC(F)F", "condition": "PC26", "potency (µM)": "0.0269", "curve": "activator"}
{"smiles": "CCN(CC)C(=O)/C(C#N)=C/c1cc(O)c(O)c([N+](=O)[O-])c1", "condition": "TAB165", "potency (µM)": "19.95", "curve": "inhibitor, single point"}
{"smiles": "CCN(CC)C(=O)/C(C#N)=C/c1cc(O)c(O)c([N+](=O)[O-])c1", "condition": "CP237", "potency (µM)": "10", "curve": "inhibitor, single point"}
{"smiles": "CCN(CC)C(=O)/C(C#N)=C/c1cc(O)c(O)c([N+](=O)[O-])c1", "condition": "ICS", "potency (µM)": "17.78", "curve": "inhibitor, single point"}
{"smiles": "CCN(CC)C(=O)/C(C#N)=C/c1cc(O)c(O)c([N+](=O)[O-])c1", "condition": "3D7", "potency (µM)": "3.981", "curve": "inhibitor, single point"}
{"smiles": "CCN(CC)C(=O)/C(C#N)=C/c1cc(O)c(O)c([N+](=O)[O-])c1", "condition": "CP217", "potency (µM)": "19.95", "curve": "inhibitor, single point"}
{"smiles": "CCN(CC)C(=O)/C(C#N)=C/c1cc(O)c(O)c([N+](=O)[O-])c1", "condition": "CP247", "potency (µM)": "10", "curve": "inhibitor, single point"}
{"smiles": "CCN(CC)C(=O)/C(C#N)=C/c1cc(O)c(O)c([N+](=O)[O-])c1", "condition": "CP286", "potency (µM)": "17.78", "curve": "inhibitor, single point"}
{"smiles": "CCN(CCO)CCCC(C)Nc1ccnc2cc(Cl)ccc12", "stereo": "stereo not given", "condition": "GB4", "potency (µM)": "16.94", "curve": "inhibitor, single point"}
{"smiles": "CCN(CCO)CCCC(C)Nc1ccnc2cc(Cl)ccc12", "stereo": "stereo not given", "condition": "CP291", "potency (µM)": "16.94", "curve": "inhibitor, single point"}
{"smiles": "CCN(CCO)CCCC(C)Nc1ccnc2cc(Cl)ccc12", "stereo": "stereo not given", "condition": "ECU", "potency (µM)": "10", "curve": "inhibitor, single point"}
{"smiles": "CCN(CCO)CCCC(C)Nc1ccnc2cc(Cl)ccc12", "stereo": "stereo not given", "condition": "PC15", "potency (µM)": "17.78", "curve": "inhibitor, single point"}
{"smiles": "CCN(CCO)CCCC(C)Nc1ccnc2cc(Cl)ccc12", "stereo": "stereo not given", "condition": "CP297", "potency (µM)": "12", "curve": "inhibitor, partial curve, poor fit"}
{"smiles": "CCN(CCO)CCCC(C)Nc1ccnc2cc(Cl)ccc12", "stereo": "stereo not given", "condition": "DIV14", "potency (µM)": "21.33", "curve": "inhibitor, single point"}
{"smiles": "CCN(CCO)CCCC(C)Nc1ccnc2cc(Cl)ccc12", "stereo": "stereo not given", "condition": "CP286", "potency (µM)": "15.85", "curve": "inhibitor, single point"}
{"smiles": "CCN(CCO)CCCC(C)Nc1ccnc2cc(Cl)ccc12", "stereo": "stereo not given", "condition": "7G8", "potency (µM)": "14.13", "curve": "inhibitor, single point"}
{"smiles": "CC(=O)OCC(=O)NCCCOc1cccc(CN2CCCCC2)c1", "condition": "CP211", "potency (µM)": "0.0011", "curve": "activator, full curve, poor fit"}
{"smiles": "C[C@@]12CCC(=O)C=C1C=C[C@H]1[C@H]3CC[C@](O)(CCC(=O)O)[C@]3(C)CC[C@@H]12", "condition": "CP260", "potency (µM)": "5.012", "curve": "inhibitor, single point"}

Some entries from above, unchanged:

With CCN(CCO)CCCC(C)Nc1ccnc2cc(Cl)ccc12 (stereo not given) [ECU] the assay gave potency 10 µM (inhibitor, single point).
With CCN(CC)C(=O)/C(C#N)=C/c1cc(O)c(O)c([N+](=O)[O-])c1 [3D7] the assay gave potency 3.981 µM (inhibitor, single point).
With CCN(CC)C(=O)/C(C#N)=C/c1cc(O)c(O)c([N+](=O)[O-])c1 [ICS] the assay gave potency 17.78 µM (inhibitor, single point).

The results are deposited in PubChem (AID504749; NCATS, 2011).